Laboratory results from paper doi:10.1101/2020.02.03.932111.
Results are given in words; binding and its absence hold for the method and conditions named. Some results given as binding are weak or reduced against the parent protein; the word gives no strength. Where a sequence is shown, tags or fusion partners need not be part of it.

Columns and labels:
[1] = biological target: T1, TF-Cub-GAUT1 (galacturonosyltransferase1, full length, N-terminally tagged with a TF-Cub fusion) (Arabidopsis thaliana) (UniProt Q9LE59); experiment: two-hybrid
T1 sequence: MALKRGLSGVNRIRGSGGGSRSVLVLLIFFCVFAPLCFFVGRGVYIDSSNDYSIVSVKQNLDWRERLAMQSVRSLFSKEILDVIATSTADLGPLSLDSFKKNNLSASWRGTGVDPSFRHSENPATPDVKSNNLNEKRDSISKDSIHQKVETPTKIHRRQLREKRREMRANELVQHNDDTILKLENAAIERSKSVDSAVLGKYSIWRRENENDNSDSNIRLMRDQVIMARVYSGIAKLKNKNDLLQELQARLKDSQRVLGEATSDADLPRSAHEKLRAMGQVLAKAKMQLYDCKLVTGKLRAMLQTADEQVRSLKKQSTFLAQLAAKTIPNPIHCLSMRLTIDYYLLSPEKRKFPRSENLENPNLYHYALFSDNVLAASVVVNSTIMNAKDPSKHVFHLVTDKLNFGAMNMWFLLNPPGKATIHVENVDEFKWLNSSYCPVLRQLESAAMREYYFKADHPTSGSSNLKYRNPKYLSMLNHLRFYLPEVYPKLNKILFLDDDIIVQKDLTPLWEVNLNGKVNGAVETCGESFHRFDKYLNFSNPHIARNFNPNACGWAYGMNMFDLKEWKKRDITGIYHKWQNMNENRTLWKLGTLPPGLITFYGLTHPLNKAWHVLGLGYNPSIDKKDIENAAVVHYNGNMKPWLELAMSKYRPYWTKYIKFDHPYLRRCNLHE

[2] = biological target: T2, TF-Cub-Anp1p (yeast) (UniProt P32629); experiment: two-hybrid
T2 sequence: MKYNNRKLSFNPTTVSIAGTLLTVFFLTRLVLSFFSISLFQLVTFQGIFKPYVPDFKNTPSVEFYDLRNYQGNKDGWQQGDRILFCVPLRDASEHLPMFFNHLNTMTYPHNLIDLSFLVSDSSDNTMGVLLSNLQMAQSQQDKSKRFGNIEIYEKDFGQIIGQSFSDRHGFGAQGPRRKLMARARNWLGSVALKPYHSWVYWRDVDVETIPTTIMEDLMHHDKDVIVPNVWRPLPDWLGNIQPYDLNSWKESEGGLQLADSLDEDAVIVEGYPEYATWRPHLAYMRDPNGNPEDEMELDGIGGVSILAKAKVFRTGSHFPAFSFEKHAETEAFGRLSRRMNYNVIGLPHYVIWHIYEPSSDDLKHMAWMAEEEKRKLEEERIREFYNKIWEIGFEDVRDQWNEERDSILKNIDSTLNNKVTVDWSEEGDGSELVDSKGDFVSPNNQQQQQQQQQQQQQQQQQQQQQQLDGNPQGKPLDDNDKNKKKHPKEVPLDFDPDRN

binding [1]: binds
binding [2]: no binding
B1: NubG-GAUT7 (full-length GAUT7 fused with NubG) (protein, UniProt Q9ZVI7 1-619)
chain: MKGGGGGGGGGGGGKRRWKVLVIGVLVLVILSMLVPLAFLLGLHNGFHSPGFVTVQPASSFESFTRINATKHTQRDVSERVDEVLQKINPVLPKKSDINVGSRDVNATSGTDSKKRGLPVSPTVVANPSPANKTKSEASYTGVQRKIVSGDETWRTCEVKYGSYCLWREENKEPMKDAKVKQMKDQLFVARAYYPSIAKMPSQSKLTRDMKQNIQEFERILSESSQDADLPPQVDKKLQKMEAVIAKAKSFPVDCNNVDKKLRQILDLTEDEASFHMKQSVFLYQLAVQTMPKSLHCLSMRLTVEHFKSDSLEDPISEKFSDPSLLHFVIISDNILASSVVINSTVVHARDSKNFVFHVLTDEQNYFAMKQWFIRNPCKQSTVQVLNIEKLELDDSDMKLSLSAEFRVSFPSGDLLASQQNRTHYLSLFSQSHYLLPKLFDKLEKVVILDDDVVVQRDLSPLWDLDMEGKVNGAVKSCTVRLGQLRSLKRGNFDTNACLWMSGLNVVDLARWRALGVSETYQKYYKEMSSGDESSEAIALQASLLTFQDQVYALDDKWALSGLGYDYYINAQAIKNAAILHYNGNMKPWLELGIPNYKNYWRRHLSREDRFLSDCNVNP
